Assay in all cases: EMSA
A general note: Mobility shift assays separate free from complexed probe on a gel.

Series [1] addresses T1, BrxX Y511A (Escherichia coli HS) (UniProt P0DUF9).
T1 sequence (looked up): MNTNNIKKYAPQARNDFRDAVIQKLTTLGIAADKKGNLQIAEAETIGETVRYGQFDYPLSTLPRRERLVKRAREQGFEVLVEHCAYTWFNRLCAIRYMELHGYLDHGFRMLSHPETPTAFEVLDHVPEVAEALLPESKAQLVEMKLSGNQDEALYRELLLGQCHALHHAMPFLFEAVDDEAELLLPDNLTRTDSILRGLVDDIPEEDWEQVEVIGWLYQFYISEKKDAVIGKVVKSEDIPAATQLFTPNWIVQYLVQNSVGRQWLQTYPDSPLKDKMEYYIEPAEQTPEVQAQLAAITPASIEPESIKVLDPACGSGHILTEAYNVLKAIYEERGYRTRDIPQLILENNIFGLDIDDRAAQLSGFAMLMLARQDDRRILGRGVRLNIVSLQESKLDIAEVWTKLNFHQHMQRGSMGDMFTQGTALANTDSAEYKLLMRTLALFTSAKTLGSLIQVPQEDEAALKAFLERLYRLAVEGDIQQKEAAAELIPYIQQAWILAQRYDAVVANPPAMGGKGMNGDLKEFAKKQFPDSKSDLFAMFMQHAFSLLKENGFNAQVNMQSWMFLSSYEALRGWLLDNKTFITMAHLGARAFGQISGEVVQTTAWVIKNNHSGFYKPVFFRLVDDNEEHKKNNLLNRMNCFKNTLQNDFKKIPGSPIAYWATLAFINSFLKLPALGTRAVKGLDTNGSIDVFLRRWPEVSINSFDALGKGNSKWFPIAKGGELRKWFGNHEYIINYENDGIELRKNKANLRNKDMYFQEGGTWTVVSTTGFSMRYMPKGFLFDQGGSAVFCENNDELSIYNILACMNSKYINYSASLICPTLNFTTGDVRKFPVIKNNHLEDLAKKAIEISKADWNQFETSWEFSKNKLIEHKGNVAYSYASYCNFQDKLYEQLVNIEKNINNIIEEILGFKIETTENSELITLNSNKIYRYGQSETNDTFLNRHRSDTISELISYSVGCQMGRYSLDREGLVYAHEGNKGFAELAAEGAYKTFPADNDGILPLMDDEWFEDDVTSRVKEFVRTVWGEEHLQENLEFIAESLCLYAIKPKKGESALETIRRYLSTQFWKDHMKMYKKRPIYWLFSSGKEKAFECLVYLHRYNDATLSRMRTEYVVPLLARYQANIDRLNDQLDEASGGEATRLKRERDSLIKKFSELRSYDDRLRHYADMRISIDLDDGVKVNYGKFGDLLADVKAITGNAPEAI
The following applies: with and without 0.5 mM SAM, binding disrupted; EMSA: 20 nM Cy5-DNA, 0.5x TBE pH 8.0, 35 mM NaCl, 5% glycerol, +/-0.5 mM SAM or SAH, 30 min, room temperature; recombinant protein; residues 1-1205; protein details: N-His6; label: 5'-Cy5 on strand 1.

Series [2] addresses T2, BrxX K515E/K522E/K526E/K533E (MTD variant) (Escherichia coli HS) (UniProt P0DUF9).
T2 sequence (looked up): T1 sequence (looked up) with A511Y, K515E, K522E, K526E, K533E
The following applies: site specificity lost; EMSA: 20 nM Cy5-DNA, 0.5x TBE pH 8.0, 35 mM NaCl, 5% glycerol, +/-0.5 mM SAM or SAH, 30 min, room temperature; recombinant protein; residues 1-1205; protein details: N-His6; label: 5'-Cy5 on strand 1.

In series [3] the target is T3, BrxX (PglX) (Escherichia coli HS) (UniProt P0DUF9).
T3 sequence (looked up): T1 sequence (looked up) with A511Y
The following applies: strict specificity for A at position 4; EMSA: 20 nM Cy5-DNA, 0.5x TBE pH 8.0, 35 mM NaCl, 5% glycerol, +/-0.5 mM SAM or SAH, 30 min, room temperature; recombinant protein; residues 1-1205; protein details: N-His6; label: 5'-Cy5 on strand 1.

Changes are numbered by the printed parent chain. Weaker means in comparison with the reference protein, sequence or condition of that experiment. Where a protein sequence is shown, tags need not be part of it. For some of these results: For at least one entry, the source does not settle the construct or the ends of the probe. For some of these results: At least one verdict rests on a figure or table, not on a statement of the authors.

As to “AGTCAGTAGTGAGGTCAGGAATGAGTCAGTCTCACTGTCAGGA (double strand) [43 bp scrambled]”, the binding result in series [1] is on record as “binds more weakly”.
On the same count and under the same terms, with “AGTCAGTGGTAAGGTCAGGAATGAGTCAGTTGGCAAGTCAGGA (double strand) [43 bp, 1 BREX site]” the entry was “binds more weakly”.
With “TCAGTAGTCAAGTCAGTGGTAAGGTCAGGACAGGAGTCAG (double strand) [40 bp BREX]”, the binding result in series [2] is recorded as “binds more weakly”.
With “TCAGTAGTCAAGTCAGTGGTCAGGTCAGGACAGGAGTCAG (double strand) [40 bp BREX 4C]”, the binding result in series [3] is listed as “binds more weakly”.
On the same count and under the same terms, with “TCAGTAGTCAAGTCAGTGGTGAGGTCAGGACAGGAGTCAG (double strand) [40 bp BREX 4G]” the entry was “binds more weakly”; with “TCAGTAGTCAAGTCAGTGGTTAGGTCAGGACAGGAGTCAG (double strand) [40 bp BREX 4T]”, “binds more weakly”.
Take “TCAGTAGTCAAGTCAGTTAGGGAGTCAGGACAGGAGTCAG (double strand) [40 bp scrambled]”: in series [2], the binding result was “binds more weakly”.

The record behind these values is paper PMC11842806, “Molecular basis of foreign DNA recognition by BREX anti-phage immunity system” (Nature Communications, 2025).
